Key:
[1] = in vivo; conditions: mouse, po
Protocol: To determine the acute toxicity, the substances are administered orally to groups of 10 female mice of the NMRI strain, weighing from 20 to 23 g. The mean lethal dose (LD 50) is determined after a period of observation of 72 hours.

[2] = Diuretic action after oral administration (excretion of electrolyte and of water); format: in vivo, dog (male beagles); conditions: dog
Protocol: The diuretic action was determined on male beagles weighing from 10 to 15 kg.
The animals are kept without food for 18 hours before starting the experiment. 2 hours before administration of the test substance, they are given 20 ml/kg of water orally. The test substances are administered orally as a tragacanth suspension. Thereafter, 4 ml/kg of water are administered 6 times at intervals of 1 hour.
Urine samples are taken by catheterization at intervals of 2 hours, over a period of 6 hours. […]

For `NS(=O)(=O)c1cc(C(=O)O)c(NCc2ccco2)cc1Cl` [Furosemid, 4-chloro-N-(2-furylmethyl)-5-sulfamylanthranilic acid, reference compound], the LD50 at 72 h [1] was 2000 mg/kg, the selectivity ratio [1] was 2000 and the “Excretion of electrolyte: Na^+” value ([2]; 2 hours, dose mg/kg: 9 0.464, 15 0.215, 114 0.1, 116 0.1, 120 0.215, Furosemid 1.0, control 66) was 1,370 μval/kg. The “Excretion of water: H2 O” value ([2]; 2 hours, doses as E1, control 9,3) was 25 mL/kg, the “Excretion of electrolyte: K^+” value ([2]; 2 hours, doses as E1, control 67) was 449 μval/kg and the “Excretion of electrolyte: Cl^-” value ([2]; 2 hours, doses as E1, control 81) was 1,720 μval/kg. The “Excretion of electrolyte: Na^+” value ([2]; 6 hours, dose mg/kg: 9 0.464, 15 0.215, 114 0.1, 116 0.1, 120 0.215, Furosemid 1.0, control 212) was 1,530 μval/kg, the “Excretion of water: H2 O” value ([2]; 6 hours, doses as E6, control 27) was 39 mL/kg and the “Excretion of electrolyte: K^+” value ([2]; 6 hours, doses as E6, control 184) was 620 μval/kg. The “Excretion of electrolyte: Cl^-” value ([2]; 6 hours, doses as E6, control 238) was 1,890 μval/kg and the “Na^+ excretion between the 2nd and 6th hours after administration” value ([2]; in words) was “no longer rises significantly”.

Reference: US4288449A, “N-Arylsulfonylpyrroles, their preparation, and therapeutic agents containing these compounds” (BASF Aktiengesellschaft, priority 1978, dated 1981)
